Experimental data taken from patent US9730984 (dated 2017).
Strings that start with PEPTIDE1 are HELM notation: dots part the residues, brackets hold end groups and non-standard residues.

Experiment: general procedure: Fmoc solid-phase peptide synthesis; NH2-Lys(Boc)-2-chloro-Trityl Resin; HBTU/HOBT/NMM
Settings: whole synthesis, high-performance liquid chromatography

Which “final HPLC purity” value does the source give for “PEPTIDE1{E.A.R.P.A.L.L.T.S.R.L.R.F.I.P.K}$$$$V2.0” here?
The value was 95% or higher.
